# Measurements taken from the supplement of paper PMC3334620.
# Whole data set: some 33,000 sequences, median “E-score (-0.5 to 0.5)” near -0.015, cut for the highest 2% near 0.3. Some of the results follow.
# Target: T1, Abf1 (UniProt P14164)
# T1 sequence: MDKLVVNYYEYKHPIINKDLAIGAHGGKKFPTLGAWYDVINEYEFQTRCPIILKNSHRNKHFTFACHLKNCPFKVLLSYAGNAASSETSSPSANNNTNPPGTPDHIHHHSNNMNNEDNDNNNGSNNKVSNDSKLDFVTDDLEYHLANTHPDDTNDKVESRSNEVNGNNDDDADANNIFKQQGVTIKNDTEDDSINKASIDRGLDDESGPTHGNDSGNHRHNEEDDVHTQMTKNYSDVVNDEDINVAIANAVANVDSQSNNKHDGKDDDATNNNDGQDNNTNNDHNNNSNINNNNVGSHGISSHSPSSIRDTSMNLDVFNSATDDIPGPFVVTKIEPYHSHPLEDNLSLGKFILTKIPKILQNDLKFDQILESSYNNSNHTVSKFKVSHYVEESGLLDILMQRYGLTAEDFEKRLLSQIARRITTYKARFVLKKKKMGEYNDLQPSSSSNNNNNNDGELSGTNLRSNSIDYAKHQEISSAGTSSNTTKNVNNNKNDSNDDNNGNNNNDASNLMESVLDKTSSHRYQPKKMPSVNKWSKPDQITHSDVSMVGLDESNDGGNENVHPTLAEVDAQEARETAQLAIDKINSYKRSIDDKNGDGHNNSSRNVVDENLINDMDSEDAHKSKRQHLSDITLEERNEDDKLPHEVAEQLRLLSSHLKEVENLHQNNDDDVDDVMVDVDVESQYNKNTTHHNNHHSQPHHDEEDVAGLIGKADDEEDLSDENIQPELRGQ
# Assay: PBM E-score (8-mer binding enrichment) (E-score (-0.5 to 0.5)); higher = stronger / more preferred TF binding
# Settings: protein concentration: 200 nM; construct: GST-full length
# How it was run: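 Masliner-normalised scans of fluorescent anti-GST signal were the basis for scoring. That signal came from GST-tagged yeast transcription factors applied at about 100-200 nM to double-stranded universal all-10-mer Agilent arrays on fresh or once-stripped slides. Each ungapped eight-base word, pooled with its reverse complement, received an E-score from the Universal PBM Analysis Suite.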
row,Sequence,PBM E-score
1,GCGGATAC,0.0748
2,ATGTGCGA,-0.00914
3,CGTGCGCC,0.122
4,GAGTACTA,0.215
5,GAAATTTC,-0.256
6,AGGACCGC,-0.178
7,AGCAAAGA,-0.226
8,GGGGGTAC,-0.201
9,CGACTACA,0.147
10,AGCTATAG,-0.217
11,ATGGACTG,0.00521
12,CTGAAAGC,0.0255
13,AATTTCTC,0.00596
14,TCCACCAA,-0.0178
15,AGTTGAAT,0.14
16,AAAGAGCT,-0.111
17,CAGCTCGC,-0.137
18,CGACAACC,0.0851
19,AACCAAGA,-0.00678
20,AAGGGATA,0.0355
21,GCAAGCGA,0.143
22,ACTTGAGC,-0.138
23,GATTTTAC,0.141
24,ACATGAGT,-0.0188
25,GTCGTGGA,0.178

row,Sequence,PBM E-score
1,CCTATATC,-0.0418
2,AATTCCTC,-0.169
3,CTCATAAG,-0.0856
4,TCTGCGCA,0.017
5,AGAGGTAC,-0.128
6,CGAAATAG,0.00531
7,CTCGAAGC,-0.0234
8,AAGTAGAA,0.0913
9,ACAAGACC,-0.143
10,ACCAGGAG,-0.163
11,GCCGCGAA,-0.173
12,CTAATAGA,0.0745
13,ATATAGTA,0.242
14,CATCCCCC,-0.31
15,CGTCCGAC,0.275
16,GACGAAGC,0.247
17,GGAACGAC,-0.00619
18,CTTCCATC,-0.162
19,CGACCAGA,-0.0204
20,GATCTTGC,0.0639
21,ATCAGTTG,0.0237
22,AAGCGCGA,-0.0643
23,GACATAGC,0.234
24,ATCGCACG,0.166
25,TCGGCAAA,-0.169

row,Sequence,PBM E-score
1,GAGCGATC,0.13
2,AATAGACT,-0.0844
3,ACTCTCCC,-0.00877
4,ACCAAGGA,-0.154
5,ATCGGGGC,-0.146
6,CCGTGTAC,0.246
7,CAGTACTA,-0.0419
8,ATAACCCC,-0.0251
9,AGACGGGG,0.0661
10,GGCGAAGA,-0.146
11,CTGAATAA,0.0519
12,TAATTATA,0.284
13,ACCACTTG,-0.0975
14,CAAGGATA,-0.0997
15,CACGGTAG,0.219
16,CCCCTACG,-0.208
17,CCAGCTTC,0.0146
18,CGCACTAC,0.0804
19,CCCAAAAC,0.0038
20,AGCCCCTC,-0.206
21,CACTAGTG,0.214
22,CATTATGA,0.0769
23,GTCGTTAA,0.296
24,ATCGCTTA,0.194
25,GACGGATA,0.157

# Laid out differently: entries from further up
row	Sequence	PBM E-score
7	CAGTACTA	-0.0419
10	GGCGAAGA	-0.146
11	CTGAATAA	0.0519
20	AGCCCCTC	-0.206
21	CACTAGTG	0.214
24	ATCGCTTA	0.194

# Further results follow.

row,Sequence,PBM E-score
1,AGATTCGG,-0.0437
2,AGCACATC,-0.0371
3,TGCACTAA,0.123
4,CGGGGGAG,-0.242
5,ACTATTGA,0.117
6,GAGTATGA,0.0292
7,AGTGGATA,0.0619
8,TCCGATAA,-0.0901
9,AACGTGGG,-0.095
10,ACGGCGCC,0.184
11,GGATTGTA,-0.0229
12,CAATGTTC,-0.12
13,CCTCTCGA,-0.294
14,AGCATCCG,-0.122
15,ATGCTCTG,-0.0418
16,CTACGAAG,0.215
17,GGGACTTA,0.0443
18,ACCTACGT,-0.0655
19,CAACCCTG,-0.133
20,GCGCATGA,-0.152
21,CATGCACA,0.0374
22,ATCGCACA,0.198
23,CGACAGGA,0.0746
24,AAGCTTAG,0.147
25,ACCGATCG,-0.0406

row,Sequence,PBM E-score
1,AGTCATAT,0.131
2,ACATTAAA,0.101
3,CCTGTATA,-0.129
4,CGTACTCC,0.203
5,CCTATTTC,0.095
6,TCTGAGCA,-0.0446
7,ACCCTATC,-0.216
8,GAGACGTA,0.182
9,ATTTGGAG,-0.164
10,GCGCGGTA,0.0645
11,AGGGATTG,-0.0744
12,GTCAGCCA,-0.0164
13,ACACTACC,-0.192
14,TACCTCCA,-0.0247
15,AGTGCTAA,-0.0243
16,GGGGCTAA,-0.29
17,GGGTGCTA,-0.118
18,AACCTTAA,0.127
19,CAACAAGC,-0.119
20,ATATAGGC,0.106
21,ACCGAAAA,0.101
22,CCACGTGA,-0.00332
23,ACAGCGAG,-0.184
24,AAAGTCTC,0.0822
25,GCAATTGC,0.0727

row,Sequence,PBM E-score
1,TGATTTAA,0.178
2,ACTTCCTA,-0.0298
3,CGTTAGAA,0.293
4,GCAGCACC,-0.273
5,AGCGCGTC,-0.175
6,ACACTAAA,0.0252
7,GGCCGCAA,-0.168
8,CGAACGTA,0.212
9,AATGTCGT,0.302
10,CTGGGTCC,-0.354
11,CCATGTCC,-0.07
12,GCGAACCC,-0.0661
13,AGAAAACT,-0.0446
14,AGAGACAC,-0.173
15,ACGTAAAT,0.113
16,ACGGACCC,-0.16
17,CATATTGA,-0.00256
18,AGCCCGGA,-0.23
19,CATCTAAC,0.0366
20,CGGTGCTA,-0.0421
21,CAAACGCA,-0.126
22,CATTGGAG,-0.018
23,GTAACTAA,-0.0125
24,CGGGTGCA,-0.26
25,CAATGGCC,-0.233

# Two consecutive entries already listed, quoted:
row,Sequence,PBM E-score
10,CTGGGTCC,-0.354
11,CCATGTCC,-0.07

# (next part)

row,Sequence,PBM E-score
1,CAGTGGGC,-0.0855
2,CCCCTGCA,-0.383
3,GACATCAC,0.352
4,AATGACTC,0.173
5,CATCACGA,0.0436
6,CTCTGTCC,-0.189
7,GACTTGCC,-0.0317
8,AATGACAG,0.16
9,ACAAGAGA,0.0342
10,CTAGGCAA,-0.134
11,ATACATTC,0.0799
12,CTTGGATC,-0.0408
13,ACGCAACT,0.00448
14,AGGGAAAG,-0.072
15,GAAGATAA,0.204
16,CAAGTCAG,-0.306
17,AACTTAAG,0.0348
18,CGGTGGAA,-0.176
19,GACCGATA,0.0548
20,GAACTGCC,0.0393
21,ATGGAGTC,0.0131
22,CCCGATCG,-0.0638
23,ATCTGCGA,-0.0337
24,CGCCTGAC,-0.063
25,GTCGAGCA,-0.172

row,Sequence,PBM E-score
1,ATTCCCTG,-0.0922
2,ACTGTGGA,-0.172
3,AGGGAGGA,-0.187
4,GATCCGCC,-0.0516
5,AAGCGCAA,0.0496
6,AGACCAGA,-0.0695
7,GTAGCTAC,0.156
8,AATGGTCC,-0.0212
9,CCGCCTAG,-0.118
10,AGCAGTAG,-0.164
11,CGGAACTA,-0.0591
12,ATTGCTAA,0.175
13,CACATTAG,-0.0502
14,GAATATCC,0.0475
15,GGATATCC,0.197
16,AGACGACT,0.125
17,GGGTATAA,-0.139
18,CTGACTAA,0.0088
19,CGGTAGCC,0.0656
20,ACATTCTA,0.091
21,AACCGTGC,0.306
22,CCAATAGA,-0.0293
23,CGATACCA,0.018
24,ATTGTTGG,0.119
25,AGTGGGAA,0.00667

row,Sequence,PBM E-score
1,CACTCTGA,0.00475
2,CAGTTCGA,-0.0806
3,GAAGAATC,-0.058
4,CTGTATCA,0.0736
5,GAGGCTGC,-0.259
6,CGAGCCCC,-0.243
7,GACTACCA,-0.0833
8,CCGGGTAA,0.141
9,GCAGATAC,0.0399
10,CTGATATA,0.107
11,GTTCATCA,0.142
12,AGCACTAG,0.0299
13,AGCTGACT,-0.0133
14,CTGTAGTA,0.146
15,CGATCACC,0.0211
16,ACGACTCT,0.15
17,CTGCGAAA,0.0374
18,CATCTGGA,0.0204
19,AACGTGCA,0.0844
